These are yes or no findings as the source states them, for the method shown. Some results given as binding are weak or reduced against the parent protein; the word gives no strength. Sequences can lack the tags named with a protein.
Assays:
[1] = target: CheAs wild type (CheAs-Flag-His) (UniProt P07363); assay: SPIDER with SAm-PupE-1 and SAm-PupE-2, Western blot
[2] = target: CheAs wild type (CheAs-Flag-His) (UniProt P07363); assay: SPIDER proximity pupylation (SAm-PupE, PafA7KR, ATP), western blot with Flag antibody
[3] = target: CheAs wild type (CheAs-Flag-His) (UniProt P07363); assay: SPIDER proximity pupylation (SAm-PupE, PafA7KR, ATP) with CheAs wild type, western blot with Flag antibody; Biotin-CheZ 0, 0.1, 0.2, 0.4 (µM by the text)
[4] = target: CheAs wild type (CheAs-Flag-His) (UniProt P07363); assay: SPIDER with streptavidin-Pup tetramer made with Pup (E), Western blot

Chains of the proteins cited; added tags and fusions are not shown. Residues count along the entry.
UniProt P07363, residues 98-257: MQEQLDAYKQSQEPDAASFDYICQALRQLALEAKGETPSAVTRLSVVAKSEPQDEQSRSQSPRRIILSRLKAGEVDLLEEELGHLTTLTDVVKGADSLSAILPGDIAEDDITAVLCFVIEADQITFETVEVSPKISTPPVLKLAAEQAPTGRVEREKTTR

Measured: binding

B1: biotin modified protein CheZ (CheZ with Avi tag) (protein)
chain: MMQPSIKPADEHSAGDIIARIGSLTRMLRDSLRELGLDQAIAEAAEAIPDARDRLYYVVQMTAQAAERALNSVEASQPHQDQMEKSAKALTQRWDDWFADPIDLADARELVTDTRQFLADVPAHTSFTNAQLLEIMMAQDFQDLTGQVIKRMMDVIQEIERQLLMVLLENIPEQESRPKRENQSLLNGPQVDTSKAGVVASQDQVDDLLDSLGF
binds: all assays above

— patent US20230280353A1, “DETECTION SYSTEM OF INTERACTION BETWEEN KNOWN MOLECULES AND PROTEINS BASED ON COVALENT CONNECTION AND IDENTIFICATION OR VERIFICATION METHOD THEREOF” (SHANGHAI JIAO TONG UNIVERSITY, priority 2021, published 2023)
